Several values for one entry are separate records, joined by “and”; a condition that tells them apart may be missing. Equal entries are not always repeated. Inconclusive means that the source gave no clear call. Such entries were picked first, then a sample of the others. Potencies beside an inconclusive call are fits to weak or partial responses and may not hold up. Some compounds were tested as several samples or in several runs, with calls that do not always agree. Activity calls are given as the source filed them. Calls come from the whole dose curve.
biological target: 5-hydroxytryptamine receptor 2A (Homo sapiens) (UniProt P28223); experiment: 5-hydroxytryptamine receptor 2A (HTR2A) small molecule antagonists, cell-based qHTS assay (AID 1963586); conditions: HTR2A-CHO cells, DOI-induced calcium flux, fluorescence; series mostly up to 61.5 µM; activity, negative = inhibition: at the top concentration; note: nearly all actives have a fitted effect of over 45% in size
Description: National Center for Advancing Translational Sciences [NCATS]
Division of Preclinical Innovation [DPI]
U.S. Environmental Protection Agency [EPA]
National Institutes of Environmental Health Sciences [NIEHS]
National Toxicology Program [NTP]
U.S. Food and Drug Administration [FDA]
The HTR2A receptor is a subtype of the 5-HT2 receptor that belongs to the serotonin receptor family and is a G protein-coupled receptor (GPCR). The HTR2A-CHO cell line stably expressing human 5-hydroxytryptamine receptor 2A (HTR2A) can be used for screening antagonists of interactions between 5-HT2 and its ligands. The HTR2A-CHO calcium flux assay is a homogeneous fluorescence-based assay for detecting the intracellular calcium level using FDSS kinetic plate reader system.
Tox21 Assay Protocol Summary:
HTR2A-CHO cells were dispensed at 2000 cells/3uL/well in 1536-well black-clear bottom plates using a Multidrop Dispenser. After the assay plates were incubated at a 37 C/5% CO2 incubator for 18 h, 3 uL of Dye Loading Buffer was transferred to the assay plate by a Flying Reagent Dispenser. The assay plates were incubated at 37 C for 1h. For antagonist mode, 23 nL of compounds dissolved in DMSO, positive controls or DMSO only was transferred to the assay plate by a pin tool. After 5 min incubation at room temperature, 1.5 uL of 4-Iodo-2,5-dimethoxy-alpha-methylbenzeneethanamine hydrochloride (DOI) at 4nM was added to each well. The fluorescence intensity in the plates was measured using FDSS 7000EX kinetic plate reader for 3 min at 1 sec intervals.
% is set by controls: 0 for no effect and ±100 for the full control effect; potency is the fitted concentration of half-maximal effect.

Protein sequences, listed by entry. Tags and fused reporters are not part of them.
UniProt P28223, whole entry, looked up: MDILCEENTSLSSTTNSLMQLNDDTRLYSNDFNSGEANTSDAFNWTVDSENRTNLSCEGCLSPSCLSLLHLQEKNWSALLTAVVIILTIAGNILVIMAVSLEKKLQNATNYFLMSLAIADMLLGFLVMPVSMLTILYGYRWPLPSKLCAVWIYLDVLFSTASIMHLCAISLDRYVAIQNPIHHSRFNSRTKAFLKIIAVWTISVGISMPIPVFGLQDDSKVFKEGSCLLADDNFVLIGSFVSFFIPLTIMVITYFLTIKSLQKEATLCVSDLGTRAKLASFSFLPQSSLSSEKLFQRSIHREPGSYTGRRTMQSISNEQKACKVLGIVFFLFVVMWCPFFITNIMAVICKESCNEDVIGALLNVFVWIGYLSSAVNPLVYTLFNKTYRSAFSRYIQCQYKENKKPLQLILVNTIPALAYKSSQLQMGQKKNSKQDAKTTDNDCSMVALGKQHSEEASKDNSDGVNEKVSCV

Compound | Potency | activity, negative = inhibition
CCc1cccc(N(C)C(N)=Nc2cccc3ccccc23)c1 | inconclusive: 1.03 µM [inhibitor, partial curve, poor fit] | –
CC(=O)C(=O)O | inactive | –
CN(C)CCc1c[nH]c2ccc(C[C@H]3COC(=O)N3)cc12 | inconclusive: 0.0013 µM [inhibitor, full curve, poor fit] | –
O=C1c2ccccc2C(=O)N1SC1CCCCC1 | inconclusive: 0.0047 µM [inhibitor, full curve] | –
O=C(O)c1cccc(-c2noc(-c3ccccc3F)n2)c1 | inconclusive: 20.5 µM [inhibitor, single point] | –
Cc1ccccc1S(=O)(=O)O | – | inactive: 2.17%
c1ccc(Nc2cccc3ccccc23)cc1 | inconclusive: 9.55 µM [inhibitor, full curve] and inconclusive: 23.7 µM [inhibitor, partial curve] | –
CCOC(=O)CC(=O)c1cc(F)c(Cl)nc1Cl | inconclusive: 19.3 µM [inhibitor, partial curve, poor fit] | –
COc1ccc(Nc2ccccc2)c(C)c1 | active: 21.1 µM | –
O=[N+]([O-])c1ccc(O)cc1 | inconclusive: 0.0062 µM [inhibitor, full curve] | –
O=C(CCCN1CCC(O)(c2cccc(C(F)(F)F)c2)CC1)c1ccc(F)cc1 | active: 0.365 µM | –
CC1=C(/C=C/C(C)=C/C=C/C(C)=C/C(=O)Nc2ccc(O)cc2)C(C)(C)CCC1 | inconclusive: 0.172 µM [inhibitor, single point] | –
Cc1ccc(CCn2c3c(c4cc(Cl)ccc42)CN(C)CC3)cn1 | inconclusive: 6.5 µM [inhibitor, partial curve, poor fit] | –
O=C1[C@H]2CCCC[C@H]2C(=O)N1CCCCN1CCN(c2nsc3ccccc23)CC1 | inconclusive: 0.0007 µM [inhibitor] | –
CC(C)(C)c1cc(/C=C2\SC(=N)NC2=O)cc(C(C)(C)C)c1O | inconclusive: 37.5 µM [inhibitor, partial curve, poor fit] | –
CCCCC(=O)O | inconclusive: 0.0067 µM [inhibitor, full curve, poor fit] | –
Cc1onc(-c2c(Cl)cccc2Cl)c1C(=O)Cl | inconclusive: 23.1 µM [inhibitor, single point] | –
C=CCCCCCCCCCCCC | – | inactive: -3.98%
Nc1cccc2c(=O)[nH][nH]c(=O)c12 | inconclusive: 16.8 µM [inhibitor, single point] | –
Nc1ccc(N=Nc2ccccc2)c(N)c1 | active: 1.64 µM | –

As entered above:
O=C(O)c1cccc(-c2noc(-c3ccccc3F)n2)c1 – Potency: inconclusive: 20.5 µM [inhibitor, single point]
CC(C)(C)c1cc(/C=C2\SC(=N)NC2=O)cc(C(C)(C)C)c1O – Potency: inconclusive: 37.5 µM [inhibitor, partial curve, poor fit]

The list continues.

Compound | Potency | activity, negative = inhibition
COc1cc(C(=O)OC(COCCC(C)C)CN2CCOCC2)cc(OC)c1OC (stereo not given) | inconclusive: 0.65 µM [inhibitor, full curve, poor fit] | –
CC(C)N(C)C | inconclusive: 47 µM [inhibitor, single point] | –
c1ccc2cc3c(ccc4ccccc43)cc2c1 | inactive | –
O=C(OCCN1CCOCC1)c1cccnc1Nc1cccc(C(F)(F)F)c1 | inconclusive: 1.3 µM [inhibitor, full curve] | –
CCc1cc(SCc2sc(-c3ccc(C(F)(F)F)cc3)nc2CN2CCN(c3ccc(OC)cc3)CC2)ccc1OCC(=O)O | inconclusive: 47.2 µM [inhibitor, partial curve, poor fit] | –
ONc1ccccc1 | – | inactive: -13.9%
CN1CCCC(n2nc(Cc3ccc(Cl)cc3)c3ccccc3c2=O)CC1 (stereo not given) | active: 0.46 µM | –
CC1(N)CCC(C(C)(C)N)CC1 (stereo not given) | inconclusive: 0.298 µM [inhibitor, single point] | –
NS(=O)(=O)c1cc2c(cc1Cl)CN(C1CCCCC1)C2=O | inconclusive: 0.41 µM [inhibitor, single point] | –
O=C(/C=C/c1ccc(O)c(O)c1)O[C@@H](C(=O)O)[C@@H](OC(=O)/C=C/c1ccc(O)c(O)c1)C(=O)O | inconclusive: 1.88 µM [inhibitor, full curve, poor fit] | –
Cc1ncsc1CCO | – | inactive: -1.72%
CN1CCN(CC(=O)N2c3ccccc3C(=O)Nc3cccnc32)CC1 | – | inactive: 57.8% [at 5.62 µM]
CCCCCCCC/C=C\CCCCCCCCOCCO | active: 24.4 µM | –
C[C@H](N)[C@H](O)c1cccc(O)c1 | inconclusive: 18.3 µM [inhibitor, single point] | –
O=C(NOCC1CC1)c1ccc(F)c(F)c1Nc1ccc(I)cc1Cl | inconclusive: 29 µM [inhibitor, partial curve, poor fit] | –
CNc1ccc(O)cc1 | inconclusive: 0.42 µM [inhibitor, single point] | –
CCC(Cl)CCC(Cl)C(Cl)CC(Cl)C(Cl)C(Cl)CCl (stereo not given) | – | inactive: -1.88%
O=C[C@@H](O)[C@H](O)[C@H](O)CO | – | inactive: 3.26%
CCCCCCCCCCCC(=O)NCCCN(C)C | active: 1.68 µM | –
Brc1ccc(-c2ccccc2)cc1 | inconclusive: 1.67 µM [inhibitor, partial curve, poor fit] | –
